Assay results published in the supplement of paper PMC10849652.
The list shows a part of the results.

Sequences of proteins named here, by UniProt entry; tags and fusion partners are left off. A change or cut given only in a name is not applied to a line headed by its entry.
UniProt Q9BXX2: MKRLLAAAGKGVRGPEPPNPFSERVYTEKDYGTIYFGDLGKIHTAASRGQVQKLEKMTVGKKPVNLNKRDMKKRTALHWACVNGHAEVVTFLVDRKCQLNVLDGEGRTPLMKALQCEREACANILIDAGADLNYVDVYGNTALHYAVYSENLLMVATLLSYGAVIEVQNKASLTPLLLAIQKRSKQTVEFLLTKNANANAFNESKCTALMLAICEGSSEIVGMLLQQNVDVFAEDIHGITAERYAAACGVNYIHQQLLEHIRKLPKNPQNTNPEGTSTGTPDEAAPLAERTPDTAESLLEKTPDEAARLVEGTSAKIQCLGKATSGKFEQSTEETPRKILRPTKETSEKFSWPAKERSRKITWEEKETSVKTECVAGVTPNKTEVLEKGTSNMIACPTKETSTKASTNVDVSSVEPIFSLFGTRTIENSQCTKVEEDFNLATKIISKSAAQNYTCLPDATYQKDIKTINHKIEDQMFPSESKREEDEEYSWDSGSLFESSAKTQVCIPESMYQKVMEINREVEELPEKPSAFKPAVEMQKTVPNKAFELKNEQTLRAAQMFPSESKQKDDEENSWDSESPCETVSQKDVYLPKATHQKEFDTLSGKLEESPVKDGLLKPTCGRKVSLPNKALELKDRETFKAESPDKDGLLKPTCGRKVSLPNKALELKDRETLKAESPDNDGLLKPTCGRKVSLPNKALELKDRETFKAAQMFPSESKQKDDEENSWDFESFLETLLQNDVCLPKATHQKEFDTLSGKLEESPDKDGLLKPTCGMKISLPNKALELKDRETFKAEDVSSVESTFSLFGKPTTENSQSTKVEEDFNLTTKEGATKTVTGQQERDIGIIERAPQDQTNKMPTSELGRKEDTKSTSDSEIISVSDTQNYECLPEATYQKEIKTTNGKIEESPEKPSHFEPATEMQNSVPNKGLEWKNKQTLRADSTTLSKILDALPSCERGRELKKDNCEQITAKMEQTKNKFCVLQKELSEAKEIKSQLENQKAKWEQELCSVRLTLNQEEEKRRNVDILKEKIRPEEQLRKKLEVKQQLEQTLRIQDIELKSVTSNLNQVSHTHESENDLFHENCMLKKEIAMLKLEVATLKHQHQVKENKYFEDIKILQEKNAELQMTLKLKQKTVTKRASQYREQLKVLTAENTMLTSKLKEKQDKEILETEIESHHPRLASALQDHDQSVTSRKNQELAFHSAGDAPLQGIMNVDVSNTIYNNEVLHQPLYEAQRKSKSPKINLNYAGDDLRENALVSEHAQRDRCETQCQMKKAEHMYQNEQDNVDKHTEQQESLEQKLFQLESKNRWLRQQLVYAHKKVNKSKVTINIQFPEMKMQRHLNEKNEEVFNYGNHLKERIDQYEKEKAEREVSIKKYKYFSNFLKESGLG
UniProt Q9C0C7: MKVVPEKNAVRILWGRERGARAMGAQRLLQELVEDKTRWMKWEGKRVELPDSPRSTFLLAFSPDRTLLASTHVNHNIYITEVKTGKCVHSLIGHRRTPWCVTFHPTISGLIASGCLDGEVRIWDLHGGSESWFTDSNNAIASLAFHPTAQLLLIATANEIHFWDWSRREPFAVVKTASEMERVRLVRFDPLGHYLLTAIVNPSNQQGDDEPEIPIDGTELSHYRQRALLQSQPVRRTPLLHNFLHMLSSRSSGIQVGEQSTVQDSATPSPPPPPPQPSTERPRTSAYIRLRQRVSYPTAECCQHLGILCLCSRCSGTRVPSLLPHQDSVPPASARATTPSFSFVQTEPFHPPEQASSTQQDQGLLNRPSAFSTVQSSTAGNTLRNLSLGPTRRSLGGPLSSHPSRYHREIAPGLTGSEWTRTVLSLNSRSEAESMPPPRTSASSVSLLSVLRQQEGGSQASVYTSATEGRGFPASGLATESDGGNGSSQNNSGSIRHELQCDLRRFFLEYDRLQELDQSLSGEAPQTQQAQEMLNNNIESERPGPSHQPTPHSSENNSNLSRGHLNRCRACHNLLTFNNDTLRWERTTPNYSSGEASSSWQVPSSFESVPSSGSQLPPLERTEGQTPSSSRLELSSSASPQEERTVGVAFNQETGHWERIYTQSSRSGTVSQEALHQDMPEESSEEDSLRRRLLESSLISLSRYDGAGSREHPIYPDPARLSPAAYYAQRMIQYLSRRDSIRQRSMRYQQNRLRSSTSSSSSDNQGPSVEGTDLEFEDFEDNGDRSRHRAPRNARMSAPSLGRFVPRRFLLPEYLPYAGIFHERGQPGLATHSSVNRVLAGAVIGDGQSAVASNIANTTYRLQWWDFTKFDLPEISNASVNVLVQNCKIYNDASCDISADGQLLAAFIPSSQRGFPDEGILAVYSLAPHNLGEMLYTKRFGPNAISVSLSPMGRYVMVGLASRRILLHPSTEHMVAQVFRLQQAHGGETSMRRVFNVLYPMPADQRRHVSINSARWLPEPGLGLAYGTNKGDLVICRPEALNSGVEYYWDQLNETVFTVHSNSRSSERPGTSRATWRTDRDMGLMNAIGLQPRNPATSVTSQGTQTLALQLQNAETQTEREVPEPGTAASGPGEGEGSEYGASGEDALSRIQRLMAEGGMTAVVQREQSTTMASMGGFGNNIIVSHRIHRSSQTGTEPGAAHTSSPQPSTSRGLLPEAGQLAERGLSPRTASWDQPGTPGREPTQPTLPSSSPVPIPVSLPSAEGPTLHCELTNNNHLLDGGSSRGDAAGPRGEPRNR
UniProt P30838: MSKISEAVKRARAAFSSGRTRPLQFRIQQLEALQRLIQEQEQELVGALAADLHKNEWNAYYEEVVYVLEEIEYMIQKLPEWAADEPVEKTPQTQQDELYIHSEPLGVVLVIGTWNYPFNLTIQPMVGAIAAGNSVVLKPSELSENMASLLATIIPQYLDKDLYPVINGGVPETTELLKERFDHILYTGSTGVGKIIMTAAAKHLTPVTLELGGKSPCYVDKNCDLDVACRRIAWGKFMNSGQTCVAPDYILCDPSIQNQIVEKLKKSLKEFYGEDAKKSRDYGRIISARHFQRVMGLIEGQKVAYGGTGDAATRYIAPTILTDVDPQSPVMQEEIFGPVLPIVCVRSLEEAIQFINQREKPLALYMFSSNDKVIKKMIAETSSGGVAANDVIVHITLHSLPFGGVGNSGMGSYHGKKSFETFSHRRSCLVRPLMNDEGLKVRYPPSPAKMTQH
UniProt Q63HQ0: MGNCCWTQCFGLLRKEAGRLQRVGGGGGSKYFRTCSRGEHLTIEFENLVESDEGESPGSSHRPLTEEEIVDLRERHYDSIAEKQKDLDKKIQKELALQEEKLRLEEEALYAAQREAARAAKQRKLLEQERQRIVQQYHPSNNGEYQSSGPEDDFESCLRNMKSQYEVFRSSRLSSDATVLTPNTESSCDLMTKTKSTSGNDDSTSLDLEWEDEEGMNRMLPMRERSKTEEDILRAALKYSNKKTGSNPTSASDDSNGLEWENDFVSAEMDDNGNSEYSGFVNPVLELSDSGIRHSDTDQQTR
UniProt P56377: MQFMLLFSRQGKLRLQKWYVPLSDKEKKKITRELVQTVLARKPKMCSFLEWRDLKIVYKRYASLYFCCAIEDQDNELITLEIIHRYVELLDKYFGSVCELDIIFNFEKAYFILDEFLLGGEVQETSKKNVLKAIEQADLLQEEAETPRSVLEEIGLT
UniProt Q96PC3: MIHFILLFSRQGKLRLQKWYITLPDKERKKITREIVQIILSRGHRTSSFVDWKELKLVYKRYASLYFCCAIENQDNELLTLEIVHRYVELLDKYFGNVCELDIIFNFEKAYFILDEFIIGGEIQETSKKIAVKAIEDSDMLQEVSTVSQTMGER
UniProt P53677: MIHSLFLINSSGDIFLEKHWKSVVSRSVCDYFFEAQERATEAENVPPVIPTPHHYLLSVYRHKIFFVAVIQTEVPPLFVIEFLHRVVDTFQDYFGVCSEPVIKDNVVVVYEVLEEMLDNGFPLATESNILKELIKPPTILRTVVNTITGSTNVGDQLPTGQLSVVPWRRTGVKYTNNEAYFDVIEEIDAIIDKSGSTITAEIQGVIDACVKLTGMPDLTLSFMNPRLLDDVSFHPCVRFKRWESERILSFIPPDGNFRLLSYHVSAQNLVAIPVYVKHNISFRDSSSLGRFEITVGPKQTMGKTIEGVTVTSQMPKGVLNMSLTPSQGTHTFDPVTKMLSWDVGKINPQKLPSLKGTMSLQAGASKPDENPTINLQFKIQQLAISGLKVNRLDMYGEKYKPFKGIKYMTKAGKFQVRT
UniProt Q8N8A2: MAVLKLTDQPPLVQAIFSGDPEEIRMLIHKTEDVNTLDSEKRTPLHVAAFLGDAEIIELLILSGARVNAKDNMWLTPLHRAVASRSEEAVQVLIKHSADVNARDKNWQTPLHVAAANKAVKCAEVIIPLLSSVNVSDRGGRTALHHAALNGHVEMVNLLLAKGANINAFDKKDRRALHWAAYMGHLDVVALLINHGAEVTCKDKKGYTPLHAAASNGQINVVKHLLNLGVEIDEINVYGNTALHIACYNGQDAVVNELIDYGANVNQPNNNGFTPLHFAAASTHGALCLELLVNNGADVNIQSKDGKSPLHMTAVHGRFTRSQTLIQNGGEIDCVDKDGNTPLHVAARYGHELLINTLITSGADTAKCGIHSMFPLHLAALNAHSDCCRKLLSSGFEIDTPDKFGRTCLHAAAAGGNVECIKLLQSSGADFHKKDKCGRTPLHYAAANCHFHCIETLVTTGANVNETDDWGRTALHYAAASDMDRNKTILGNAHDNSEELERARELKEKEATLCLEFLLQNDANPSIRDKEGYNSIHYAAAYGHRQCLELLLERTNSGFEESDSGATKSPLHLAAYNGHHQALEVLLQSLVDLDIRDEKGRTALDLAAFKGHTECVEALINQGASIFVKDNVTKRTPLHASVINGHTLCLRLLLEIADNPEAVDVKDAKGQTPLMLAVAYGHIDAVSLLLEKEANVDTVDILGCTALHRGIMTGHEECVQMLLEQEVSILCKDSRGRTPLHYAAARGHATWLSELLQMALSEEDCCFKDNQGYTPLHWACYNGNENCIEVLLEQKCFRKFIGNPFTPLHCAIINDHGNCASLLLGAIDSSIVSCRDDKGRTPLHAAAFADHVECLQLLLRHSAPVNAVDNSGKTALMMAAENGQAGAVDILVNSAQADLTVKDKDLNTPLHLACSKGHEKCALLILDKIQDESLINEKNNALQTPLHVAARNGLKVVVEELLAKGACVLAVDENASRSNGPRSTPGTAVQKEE
UniProt Q9ULJ7: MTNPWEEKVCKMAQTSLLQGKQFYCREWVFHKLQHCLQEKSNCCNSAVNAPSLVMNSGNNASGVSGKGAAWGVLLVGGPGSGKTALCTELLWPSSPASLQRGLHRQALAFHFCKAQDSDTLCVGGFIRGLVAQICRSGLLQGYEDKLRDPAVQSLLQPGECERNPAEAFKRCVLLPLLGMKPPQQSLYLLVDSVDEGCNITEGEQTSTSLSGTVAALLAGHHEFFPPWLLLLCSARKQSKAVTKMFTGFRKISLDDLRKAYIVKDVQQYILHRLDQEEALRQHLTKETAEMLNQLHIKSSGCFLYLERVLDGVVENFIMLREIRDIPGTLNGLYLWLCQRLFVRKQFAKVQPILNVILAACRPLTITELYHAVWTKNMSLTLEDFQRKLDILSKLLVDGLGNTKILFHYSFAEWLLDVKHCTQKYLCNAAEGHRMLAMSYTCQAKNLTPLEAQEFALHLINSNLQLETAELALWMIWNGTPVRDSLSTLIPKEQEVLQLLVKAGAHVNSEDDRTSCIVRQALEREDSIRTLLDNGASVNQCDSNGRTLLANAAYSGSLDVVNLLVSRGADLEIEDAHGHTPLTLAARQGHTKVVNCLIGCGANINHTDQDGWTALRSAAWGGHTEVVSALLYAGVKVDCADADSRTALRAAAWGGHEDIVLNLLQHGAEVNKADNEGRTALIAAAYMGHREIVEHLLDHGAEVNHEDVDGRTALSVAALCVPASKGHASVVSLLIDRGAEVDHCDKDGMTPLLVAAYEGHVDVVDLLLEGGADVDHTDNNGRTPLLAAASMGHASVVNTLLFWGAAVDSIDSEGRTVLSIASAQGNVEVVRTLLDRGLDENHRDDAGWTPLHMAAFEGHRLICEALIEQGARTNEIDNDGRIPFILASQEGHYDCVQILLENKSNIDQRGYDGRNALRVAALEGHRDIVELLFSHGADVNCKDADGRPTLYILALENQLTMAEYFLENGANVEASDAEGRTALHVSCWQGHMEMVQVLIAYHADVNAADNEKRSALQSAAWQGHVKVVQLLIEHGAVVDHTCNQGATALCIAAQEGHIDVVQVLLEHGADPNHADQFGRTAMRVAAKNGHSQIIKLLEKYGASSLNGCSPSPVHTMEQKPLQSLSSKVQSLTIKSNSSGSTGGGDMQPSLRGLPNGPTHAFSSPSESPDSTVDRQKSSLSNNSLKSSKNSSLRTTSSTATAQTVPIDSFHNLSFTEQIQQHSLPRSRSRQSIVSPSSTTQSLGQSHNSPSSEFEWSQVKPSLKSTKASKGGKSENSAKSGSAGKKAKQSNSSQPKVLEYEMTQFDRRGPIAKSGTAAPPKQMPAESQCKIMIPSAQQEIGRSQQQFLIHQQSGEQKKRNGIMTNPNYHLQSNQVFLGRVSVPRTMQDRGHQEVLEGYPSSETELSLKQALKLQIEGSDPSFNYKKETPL

What follows are targets tested with CS(=O)(=O)CCNCc1ccc(-c2ccc3ncnc(Nc4ccc(OCc5cccc(F)c5)c(Cl)c4)c3c2)o1 [lapatinib] (assay: log2 fold change, soluble protein after heating vs DMSO (PISA); higher = thermal stabilisation; K562 lysate, 10 uM; active = over 0.2 and 3.5 SD of the protein, either way, in both replicates (recomputed)).
How it was run: (§1)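 Log-two fold change in thermal stability relative to solvent controls is reported from duplicates. For each sample, crude K562 extract from dounce-homogenised pellets in PBS pH 7.4 with 1 mM MgCl2, at 1 mg/mL protein, was treated with 10 μM compound for 30 min. Aliquots heated for 3 min across 48°C-58°C were pooled, brought to 0.5% NP-40 at 4°C and cleared at 21,000xg for 90 min. The supernatant was quantified by TMTpro 16plex LC-MS/MS with channel sums equalised.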
For ANKRD13B (UniProt Q86YJ7), the log2 fold change was inactive: 0.085.
ANKRD26 (UniProt Q9UPS8) was tested, and the log2 fold change was inactive: -0.212.
For ANKRD30B (UniProt Q9BXX2), the log2 fold change was inactive: -0.049.
ANXA6 (UniProt E5RK69) was tested, and the log2 fold change was inactive: 0.019.
In the case of AMBRA1 isoform 5 (UniProt Q9C0C7), the log2 fold change is reported as inactive: -0.074.
ALDH3A1 (UniProt P30838) was tested, and the log2 fold change was inactive: -0.002.
With AP1AR (UniProt Q63HQ0) the log2 fold change was inactive: 0.021.
AMZ2 (UniProt Q86W34) was tested, and the log2 fold change was inactive: -0.002.
For ALG12 (UniProt Q9BV10), the log2 fold change was inactive: -0.038.
With AKTIP isoform 2 (UniProt Q9H8T0) the log2 fold change was inactive: -0.105.
With ALDOA (UniProt H3BPS8) the log2 fold change was inactive: -0.132.
In the case of ALG14 (UniProt Q96F25), the log2 fold change is reported as inactive: -0.084.
For AP1G1 (UniProt H3BV30), the log2 fold change was inactive: 0.173.
ALAS1 (UniProt P13196) was tested, and the log2 fold change was inactive: -0.062.
In the case of ANKH (UniProt Q9HCJ1), the log2 fold change is reported as inactive: 0.014.
For AP1S2 (UniProt P56377), the log2 fold change was inactive: -0.012.
AP1S3 isoform 4 (UniProt Q96PC3) was tested, and the log2 fold change was inactive: -0.004.
For AP3M2 (UniProt P53677), the log2 fold change was inactive: -0.029.
In the case of AP3S2 (UniProt P59780), the log2 fold change is reported as inactive: -0.201.
In the case of ANKRD31 (UniProt Q8N7Z5), the log2 fold change is reported as inactive: 0.106.
For AKT1S1 (UniProt M0R2V8), the log2 fold change was inactive: -0.142.
In the case of ANKRD44 isoform 2 (UniProt Q8N8A2), the log2 fold change is reported as inactive: -0.004.
ANKRD50 (UniProt Q9ULJ7) was tested, and the log2 fold change was inactive: 0.019.
In the case of AP2S1 (UniProt M0QZ21), the log2 fold change is reported as inactive: 0.024.
For AP2M1 (UniProt C9JPV8), the log2 fold change was inactive: 0.03.
ANKHD1 (UniProt D6RHC4) was tested, and the log2 fold change was inactive: 0.03.
For AMN1 (UniProt Q8IY45), the log2 fold change was inactive: 0.331.
In the case of ANGPTL4 (UniProt M0R3A2), the log2 fold change is reported as inactive: 0.353.
ANKS1B (UniProt Q7Z6G8) was tested, and the log2 fold change was inactive: 0.048.
With ANAPC16 (UniProt Q96DE5) the log2 fold change was inactive: 0.087.
In the case of AP3D1 isoform 2 (UniProt O14617), the log2 fold change is reported as inactive: 0.084.

The targets below were run with CS(=O)(=O)N1CCN(Cc2cc3nc(-c4cccc5[nH]ncc45)nc(N4CCOCC4)c3s2)CC1 [pictilisib] in the same assay as above.
How it was run: as §1
AP4M1 (UniProt O00189) was tested, and the log2 fold change was inactive: 0.007.
In the case of ANKRD26 (UniProt Q9UPS8), the log2 fold change is reported as inactive: -0.284.
ANKRD30B (UniProt Q9BXX2) was tested, and the log2 fold change was inactive: -0.068.
In the case of ANKLE2 (UniProt Q86XL3), the log2 fold change is reported as inactive: -0.03.
In the case of AP1AR (UniProt Q63HQ0), the log2 fold change is reported as inactive: 0.097.
AMZ2 (UniProt Q86W34) was tested, and the log2 fold change was inactive: -0.09.
With ALG12 (UniProt Q9BV10) the log2 fold change was inactive: 0.053.
With ALDOA (UniProt H3BPS8) the log2 fold change was inactive: -0.221.
In the case of ANKRD40 (UniProt Q6AI12), the log2 fold change is reported as inactive: -0.116.
In the case of ALAS1 (UniProt P13196), the log2 fold change is reported as inactive: -0.016.
AP1S2 (UniProt P56377) was tested, and the log2 fold change was inactive: 0.057.
For AP1S3 isoform 4 (UniProt Q96PC3), the log2 fold change was inactive: -0.153.
With AP3M2 (UniProt P53677) the log2 fold change was inactive: 0.1.
In the case of ANKRD31 (UniProt Q8N7Z5), the log2 fold change is reported as inactive: 0.077.
With ANKRD44 isoform 2 (UniProt Q8N8A2) the log2 fold change was inactive: 0.046.
AP2S1 (UniProt M0QZ21) was tested, and the log2 fold change was inactive: 0.054.
For ANGPTL4 (UniProt M0R3A2), the log2 fold change was inactive: 0.266.

The targets below were run with C[C@@H](Oc1cc(-c2cnn(C3CCNCC3)c2)cnc1N)c1c(Cl)ccc(F)c1Cl [crizotinib] in the same assay as above.
How it was run: as §1
AP4M1 (UniProt O00189) was tested, and the log2 fold change was inactive: -0.068.
For ANKRD26 (UniProt Q9UPS8), the log2 fold change was inactive: 0.44.
For ANXA6 (UniProt E5RK69), the log2 fold change was inactive: -0.064.
For AMBRA1 isoform 5 (UniProt Q9C0C7), the log2 fold change was inactive: -0.007.
In the case of ANKLE2 (UniProt Q86XL3), the log2 fold change is reported as inactive: 0.009.
ALDH3A1 (UniProt P30838) was tested, and the log2 fold change was inactive: -0.134.
With AP1AR (UniProt Q63HQ0) the log2 fold change was inactive: -0.049.
With AMZ2 (UniProt Q86W34) the log2 fold change was inactive: 0.018.
ANKRD40 (UniProt Q6AI12) was tested, and the log2 fold change was inactive: -0.022.
In the case of ANKH (UniProt Q9HCJ1), the log2 fold change is reported as inactive: -0.007.
For AP1S2 (UniProt P56377), the log2 fold change was inactive: -0.162.
ANKRD31 (UniProt Q8N7Z5) was tested, and the log2 fold change was inactive: 0.053.
In the case of ANKRD50 (UniProt Q9ULJ7), the log2 fold change is reported as inactive: -0.125.
ANAPC16 (UniProt Q96DE5) was tested, and the log2 fold change was inactive: -0.023.

The targets below were run with C[C@H](C1=CC=C(C=C1)C(=O)NC2=C3C=CNC3=NC=C2)N in the same assay as above.
How it was run: as §1
For AP4M1 (UniProt O00189), the log2 fold change was inactive: -0.015.
For ANKRD30B (UniProt Q9BXX2), the log2 fold change was active: -0.558.
For AMBRA1 isoform 5 (UniProt Q9C0C7), the log2 fold change was inactive: -0.011.
With ANKLE2 (UniProt Q86XL3) the log2 fold change was inactive: 0.042.
In the case of ALDH3A1 (UniProt P30838), the log2 fold change is reported as inactive: -0.721.
With AP1AR (UniProt Q63HQ0) the log2 fold change was inactive: 0.064.
ALG12 (UniProt Q9BV10) was tested, and the log2 fold change was inactive: -0.016.
ALDOA (UniProt H3BPS8) was tested, and the log2 fold change was inactive: -0.082.
With ANKRD40 (UniProt Q6AI12) the log2 fold change was inactive: -0.018.
With ALAS1 (UniProt P13196) the log2 fold change was inactive: -0.121.
With AP1S2 (UniProt P56377) the log2 fold change was inactive: -0.282.
With AP1S3 isoform 4 (UniProt Q96PC3) the log2 fold change was inactive: -0.084.
AP3M2 (UniProt P53677) was tested, and the log2 fold change was inactive: 0.005.
ANKRD44 isoform 2 (UniProt Q8N8A2) was tested, and the log2 fold change was active: -1.57.
ANKRD50 (UniProt Q9ULJ7) was tested, and the log2 fold change was inactive: -0.105.
In the case of AP2S1 (UniProt M0QZ21), the log2 fold change is reported as inactive: -0.053.
In the case of AMN1 (UniProt Q8IY45), the log2 fold change is reported as inactive: -0.059.
ANGPTL4 (UniProt M0R3A2) was tested, and the log2 fold change was inactive: 0.283.
With ANAPC16 (UniProt Q96DE5) the log2 fold change was inactive: 0.095.
For AP3D1 isoform 2 (UniProt O14617), the log2 fold change was inactive: 0.19.
